# Laboratory results: PubChem BioAssay AID1224829 (NIAID, 2016)
# Purpose: 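Secondary check of hits that alter LPS-induced p65 translocation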 (follow-up of hits)
# Cells: mouse RAW264.7 G9 macrophage reporter cells
# Reagent: single siRNA against mouse genes, 100 nM
# Timing: 2 days of siRNA knock-down, then 40 min of LPS before fixing
# Conditions: LPS (Salmonella minnesota R595) at 10 ng/ml
# Read-out: 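Imaging of GFP-p65 after 40 min of LPS; nuclear over perinuclear ring intensity ratio, scaled to plate median and non-targeting control wells, given as z-score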
# Reading the numbers: p65 translocation z-score: higher = more nuclear NF-kappaB p65 after LPS
# Call rule: 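Active means the replicate-mean z-score lies beyond plus or minus 2, in either direction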
# Calls: active = changed p65 translocation (either direction); inactive = no clear change
# In all, the deposit lists about 3,800 reagents; this is a part drawn at random. 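Calls cover raised and lowered translocation; gene median uses one vendor's three siRNAs; qiagen siRNAs acted more weakly than ambion siRNAs.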 The numbers tell different reagents against one gene apart. Further read-outs or replicates are left out here.
gene,siRNA no.,siRNA vendor or control pool,"p65 translocation z-score, replicate mean","p65 translocation z-score, replicate 1","p65 translocation z-score, replicate 2",Call
Spryd7 (GeneID 66674),1,ambion single siRNA,0.708,0.357,1.06,inactive
Spryd7 (GeneID 66674),2,ambion single siRNA,-1.4,0.614,-3.42,inactive
Spryd7 (GeneID 66674),3,ambion single siRNA,4.16,5.93,2.39,active
Spryd7 (GeneID 66674),4,qiagen single siRNA,0.783,1.51,0.0581,inactive
Spryd7 (GeneID 66674),5,qiagen single siRNA,-2.35,-3.35,-1.34,active
Spryd7 (GeneID 66674),6,qiagen single siRNA,0.67,-0.122,1.46,inactive
Raet1b (GeneID 19369),1,ambion single siRNA,0.932,1.67,0.199,inactive
Raet1b (GeneID 19369),2,ambion single siRNA,-3.2,-2.19,-4.2,active
Raet1b (GeneID 19369),3,ambion single siRNA,-5.27,-4.95,-5.6,active
Raet1b (GeneID 19369),4,qiagen single siRNA,-0.0328,0.15,-0.216,inactive
Raet1b (GeneID 19369),5,qiagen single siRNA,5.07,4.47,5.67,active
Raet1b (GeneID 19369),6,qiagen single siRNA,0.405,-0.656,1.47,inactive
Hoxd3 (GeneID 15434),1,ambion single siRNA,-0.116,0.558,-0.789,inactive
Hoxd3 (GeneID 15434),2,ambion single siRNA,-2.29,-2.29,,active
Hoxd3 (GeneID 15434),3,ambion single siRNA,-2.93,-3.51,-2.35,active
Hoxd3 (GeneID 15434),4,qiagen single siRNA,-0.273,-0.847,0.3,inactive
Hoxd3 (GeneID 15434),5,qiagen single siRNA,1.27,0.69,1.85,inactive
Hoxd3 (GeneID 15434),6,qiagen single siRNA,1.7,3.08,0.311,inactive
Gpd1l (GeneID 333433),1,ambion single siRNA,0.377,0.583,0.172,inactive
Gpd1l (GeneID 333433),2,ambion single siRNA,-4.06,-3.97,-4.15,active
Gpd1l (GeneID 333433),3,ambion single siRNA,-2.37,-2.37,,active
Gpd1l (GeneID 333433),4,qiagen single siRNA,1.07,0.513,1.62,inactive
Gpd1l (GeneID 333433),5,qiagen single siRNA,-1.28,-0.808,-1.75,inactive
Gpd1l (GeneID 333433),6,qiagen single siRNA,-3.5,-2.48,-4.51,active
Cse1l (GeneID 110750),1,ambion single siRNA,-0.149,0.196,-0.494,inactive
Cse1l (GeneID 110750),2,ambion single siRNA,1.08,2.28,-0.126,inactive
Cse1l (GeneID 110750),3,ambion single siRNA,-5.04,-3.83,-6.25,active
Cse1l (GeneID 110750),4,qiagen single siRNA,3.52,4.22,2.82,active
Cse1l (GeneID 110750),5,qiagen single siRNA,-0.878,0.681,-2.44,inactive
Cse1l (GeneID 110750),6,qiagen single siRNA,-0.286,-0.286,,inactive
Tgs1 (GeneID 116940),1,ambion single siRNA,-3.92,-3.92,,active
Tgs1 (GeneID 116940),2,ambion single siRNA,1.48,2.26,0.696,inactive
Tgs1 (GeneID 116940),3,ambion single siRNA,-6.47,-10.1,-2.87,active
Tgs1 (GeneID 116940),4,qiagen single siRNA,1.36,0.869,1.85,inactive
Tgs1 (GeneID 116940),5,qiagen single siRNA,0.941,0.157,1.72,inactive
Tgs1 (GeneID 116940),6,qiagen single siRNA,-2.87,-2.4,-3.33,active
Actr3 (GeneID 74117),1,ambion single siRNA,-1.63,-2.41,-0.845,inactive
Actr3 (GeneID 74117),2,ambion single siRNA,-4.4,-5.22,-3.59,active
Actr3 (GeneID 74117),3,ambion single siRNA,-1.54,-1.09,-1.99,inactive
Actr3 (GeneID 74117),4,qiagen single siRNA,1.56,1.16,1.97,inactive
Actr3 (GeneID 74117),5,qiagen single siRNA,0.966,0.866,1.07,inactive
Actr3 (GeneID 74117),6,qiagen single siRNA,-1.95,-1.98,-1.91,inactive
Gpr4 (GeneID 319197),1,ambion single siRNA,-1.24,-1.85,-0.633,inactive
Gpr4 (GeneID 319197),2,ambion single siRNA,-2.17,-2.81,-1.52,active
Gpr4 (GeneID 319197),3,ambion single siRNA,-3.97,-4.29,-3.66,active
Gpr4 (GeneID 319197),4,qiagen single siRNA,1.89,2.75,1.04,inactive
Gpr4 (GeneID 319197),5,qiagen single siRNA,0.554,1.21,-0.106,inactive
Gpr4 (GeneID 319197),6,qiagen single siRNA,-1.82,-1.82,,inactive
Ptpn3 (GeneID 545622),1,qiagen single siRNA,1.21,1.63,0.79,inactive
Ptpn3 (GeneID 545622),2,qiagen single siRNA,-1.26,-1.61,-0.912,inactive
Ptpn3 (GeneID 545622),3,qiagen single siRNA,-3.47,-1.75,-5.2,active

Reformatted: 4 of the entries above
{"gene": "Raet1b (GeneID 19369)", "siRNA no.": 1, "siRNA vendor or control pool": "ambion single siRNA", "p65 translocation z-score, replicate mean": 0.932, "p65 translocation z-score, replicate 1": 1.67, "p65 translocation z-score, replicate 2": 0.199, "Call": "inactive"}
{"gene": "Raet1b (GeneID 19369)", "siRNA no.": 2, "siRNA vendor or control pool": "ambion single siRNA", "p65 translocation z-score, replicate mean": -3.2, "p65 translocation z-score, replicate 1": -2.19, "p65 translocation z-score, replicate 2": -4.2, "Call": "active"}
{"gene": "Raet1b (GeneID 19369)", "siRNA no.": 3, "siRNA vendor or control pool": "ambion single siRNA", "p65 translocation z-score, replicate mean": -5.27, "p65 translocation z-score, replicate 1": -4.95, "p65 translocation z-score, replicate 2": -5.6, "Call": "active"}
{"gene": "Raet1b (GeneID 19369)", "siRNA no.": 4, "siRNA vendor or control pool": "qiagen single siRNA", "p65 translocation z-score, replicate mean": -0.0328, "p65 translocation z-score, replicate 1": 0.15, "p65 translocation z-score, replicate 2": -0.216, "Call": "inactive"}
